Results are given in words; binding and its absence hold for the method and conditions named. Binding can be weak; no strength is given. For some assays here: In cells and extracts the contact can be indirect.
Key:
[1] = target: SUN domain of human SUN1 (amino-acids 616-812) (human); assay: SEC-SAXS
[2] = target: SUN domain of human SUN1 (amino-acids 616-812) (human); assay: crystal structure

binding [1]	binding [2]	Binder
binds	–	EDSWTSLEHILWPFTRLRHNGPPPV (peptide, UniProt Q12912 531-555) [KASH6 core (human JAW1/LRMP amino-acids 531-555)]
–	binds	TGQLFQKSVDAAPTQQEDSWTSLEHILWPFTRLRHNGPPPV (peptide, UniProt Q12912 515-555) [KASH domain of human JAW1/LRMP (amino-acids 515-555)]
